Test results taken from article PMC10681723.
No constants are given. Whether binding was seen depends on the method and setting. For part of these data: Binding seen in cells or lysates may run through a third protein. Some entries that bind do so weakly or less than the wild type.

Sequences of proteins named here, by UniProt entry; tags and fusion partners are left off. A change or cut given only in a name is not applied to a line headed by its entry. A line that says so, or that is headed by a name, gives the form on record, which may keep a tag or linker. Residues count along the entry.
UniProt P32558: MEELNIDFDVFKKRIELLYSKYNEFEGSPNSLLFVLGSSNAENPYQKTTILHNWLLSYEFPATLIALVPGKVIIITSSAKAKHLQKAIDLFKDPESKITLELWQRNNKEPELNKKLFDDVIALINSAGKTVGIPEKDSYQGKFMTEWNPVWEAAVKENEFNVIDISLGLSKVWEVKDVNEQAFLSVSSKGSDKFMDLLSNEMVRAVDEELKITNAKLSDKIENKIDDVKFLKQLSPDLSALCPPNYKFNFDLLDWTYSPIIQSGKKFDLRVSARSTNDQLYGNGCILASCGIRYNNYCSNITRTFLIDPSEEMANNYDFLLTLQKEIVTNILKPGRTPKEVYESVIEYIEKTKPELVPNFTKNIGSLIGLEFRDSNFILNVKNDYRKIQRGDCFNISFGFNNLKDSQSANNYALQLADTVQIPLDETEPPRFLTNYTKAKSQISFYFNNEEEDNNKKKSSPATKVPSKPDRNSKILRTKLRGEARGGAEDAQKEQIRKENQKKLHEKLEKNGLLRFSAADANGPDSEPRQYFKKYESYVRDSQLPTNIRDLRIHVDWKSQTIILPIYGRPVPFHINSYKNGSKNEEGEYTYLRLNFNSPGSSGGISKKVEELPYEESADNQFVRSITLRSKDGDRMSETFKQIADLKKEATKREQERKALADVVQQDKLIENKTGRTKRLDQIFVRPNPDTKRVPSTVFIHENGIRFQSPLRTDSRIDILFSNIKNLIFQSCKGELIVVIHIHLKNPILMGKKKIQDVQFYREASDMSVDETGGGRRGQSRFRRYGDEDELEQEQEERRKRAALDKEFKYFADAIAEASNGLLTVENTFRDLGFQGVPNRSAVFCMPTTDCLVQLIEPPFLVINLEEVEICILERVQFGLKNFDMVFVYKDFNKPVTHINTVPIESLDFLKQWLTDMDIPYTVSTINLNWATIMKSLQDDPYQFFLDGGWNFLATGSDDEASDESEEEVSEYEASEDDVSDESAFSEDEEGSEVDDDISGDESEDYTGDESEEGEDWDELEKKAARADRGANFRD
TAP-tagged Spt16 N-terminal domain (Spt16-N-TAP) (budding yeast (S. cerevisiae)): residues 1-468 of P32558
TAP-tagged Spt16-m (SPT16-K692R693AA) (budding yeast (S. cerevisiae)) (P32558, form named): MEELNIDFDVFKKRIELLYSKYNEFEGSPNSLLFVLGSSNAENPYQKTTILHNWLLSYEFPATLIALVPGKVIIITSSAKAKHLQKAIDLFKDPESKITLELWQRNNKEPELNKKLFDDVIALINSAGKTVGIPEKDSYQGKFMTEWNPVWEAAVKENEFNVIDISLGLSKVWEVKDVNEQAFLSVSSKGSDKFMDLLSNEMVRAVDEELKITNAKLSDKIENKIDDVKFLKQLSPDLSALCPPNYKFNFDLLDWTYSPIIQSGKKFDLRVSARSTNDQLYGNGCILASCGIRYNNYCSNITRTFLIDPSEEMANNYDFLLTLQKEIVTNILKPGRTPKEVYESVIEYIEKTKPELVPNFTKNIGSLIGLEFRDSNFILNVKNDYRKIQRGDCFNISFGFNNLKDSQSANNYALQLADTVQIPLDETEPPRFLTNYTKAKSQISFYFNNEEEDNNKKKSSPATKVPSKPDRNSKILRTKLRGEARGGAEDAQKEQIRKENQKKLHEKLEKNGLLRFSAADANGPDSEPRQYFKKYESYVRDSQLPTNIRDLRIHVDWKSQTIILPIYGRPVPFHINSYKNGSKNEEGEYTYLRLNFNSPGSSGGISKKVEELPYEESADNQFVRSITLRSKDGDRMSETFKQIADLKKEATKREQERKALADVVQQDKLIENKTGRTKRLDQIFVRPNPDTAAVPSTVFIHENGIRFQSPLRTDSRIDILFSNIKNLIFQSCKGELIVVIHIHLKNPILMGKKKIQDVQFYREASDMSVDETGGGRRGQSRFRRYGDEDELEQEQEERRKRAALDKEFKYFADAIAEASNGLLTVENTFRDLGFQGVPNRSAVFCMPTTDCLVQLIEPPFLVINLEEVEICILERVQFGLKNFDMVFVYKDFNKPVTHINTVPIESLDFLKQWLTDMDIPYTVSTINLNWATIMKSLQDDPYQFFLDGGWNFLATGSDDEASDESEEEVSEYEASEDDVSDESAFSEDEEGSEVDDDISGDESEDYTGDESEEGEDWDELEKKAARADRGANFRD
TAP-tagged Spt16-ΔN (Spt16-ΔN-TAP) (budding yeast (S. cerevisiae)) (P32558, form named): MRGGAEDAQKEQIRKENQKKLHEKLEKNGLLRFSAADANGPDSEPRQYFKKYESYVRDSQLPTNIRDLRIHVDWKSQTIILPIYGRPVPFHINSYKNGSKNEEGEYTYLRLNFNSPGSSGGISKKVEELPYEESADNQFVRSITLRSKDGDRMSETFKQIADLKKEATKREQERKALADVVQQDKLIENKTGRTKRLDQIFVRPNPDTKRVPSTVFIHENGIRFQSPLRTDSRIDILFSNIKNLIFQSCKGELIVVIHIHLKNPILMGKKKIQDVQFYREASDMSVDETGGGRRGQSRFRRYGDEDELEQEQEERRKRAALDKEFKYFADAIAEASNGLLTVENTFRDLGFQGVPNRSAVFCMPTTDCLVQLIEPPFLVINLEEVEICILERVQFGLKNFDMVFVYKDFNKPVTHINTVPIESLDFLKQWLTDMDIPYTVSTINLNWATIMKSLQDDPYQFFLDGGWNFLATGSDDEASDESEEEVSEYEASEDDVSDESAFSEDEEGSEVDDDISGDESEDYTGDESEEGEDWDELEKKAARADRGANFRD
UniProt P29469: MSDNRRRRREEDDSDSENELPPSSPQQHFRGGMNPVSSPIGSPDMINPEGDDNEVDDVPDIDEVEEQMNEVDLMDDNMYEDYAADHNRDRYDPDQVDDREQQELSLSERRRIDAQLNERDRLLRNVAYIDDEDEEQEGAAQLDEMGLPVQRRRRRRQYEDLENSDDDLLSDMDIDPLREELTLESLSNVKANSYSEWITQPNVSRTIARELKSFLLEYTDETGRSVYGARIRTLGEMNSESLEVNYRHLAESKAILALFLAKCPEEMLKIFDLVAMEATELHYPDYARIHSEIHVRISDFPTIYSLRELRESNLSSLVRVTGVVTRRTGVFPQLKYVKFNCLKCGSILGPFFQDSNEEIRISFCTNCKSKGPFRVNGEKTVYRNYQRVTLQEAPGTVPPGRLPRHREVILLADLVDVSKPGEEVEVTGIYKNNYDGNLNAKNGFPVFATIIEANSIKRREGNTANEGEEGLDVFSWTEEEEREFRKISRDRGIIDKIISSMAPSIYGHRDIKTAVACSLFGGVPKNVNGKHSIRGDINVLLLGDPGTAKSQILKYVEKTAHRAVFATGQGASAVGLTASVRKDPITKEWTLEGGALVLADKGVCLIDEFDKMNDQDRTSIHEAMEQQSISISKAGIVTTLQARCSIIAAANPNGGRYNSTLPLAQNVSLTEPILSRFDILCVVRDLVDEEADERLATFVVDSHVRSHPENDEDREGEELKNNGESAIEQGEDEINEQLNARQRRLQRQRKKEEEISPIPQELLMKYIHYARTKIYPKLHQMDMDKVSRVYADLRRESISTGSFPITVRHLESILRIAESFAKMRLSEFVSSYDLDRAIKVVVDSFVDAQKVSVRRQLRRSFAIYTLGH
UniProt Q04636: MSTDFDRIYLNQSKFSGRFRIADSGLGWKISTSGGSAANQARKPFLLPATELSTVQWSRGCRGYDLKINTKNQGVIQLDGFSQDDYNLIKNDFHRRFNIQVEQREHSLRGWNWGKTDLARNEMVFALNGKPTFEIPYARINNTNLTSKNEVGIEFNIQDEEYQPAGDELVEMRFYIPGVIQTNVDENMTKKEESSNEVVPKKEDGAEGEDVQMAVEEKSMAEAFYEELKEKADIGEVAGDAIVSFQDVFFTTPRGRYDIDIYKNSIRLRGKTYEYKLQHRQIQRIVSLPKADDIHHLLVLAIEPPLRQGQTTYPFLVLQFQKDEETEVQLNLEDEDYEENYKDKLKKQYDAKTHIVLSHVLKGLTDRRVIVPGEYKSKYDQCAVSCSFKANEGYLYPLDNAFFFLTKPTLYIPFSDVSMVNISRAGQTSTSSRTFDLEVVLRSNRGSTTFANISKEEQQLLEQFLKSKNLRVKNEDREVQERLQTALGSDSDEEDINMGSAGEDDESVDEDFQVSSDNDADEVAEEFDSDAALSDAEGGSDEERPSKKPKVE

Columns and labels:
[1] = target: TAP-tagged Spt16-m (SPT16-K692R693AA) (budding yeast (S. cerevisiae)) (UniProt P32558); assay: co-IP; tandem affinity purification of TAP-tagged Spt16 from yeast lysate (IgG Sepharose, TEV elution, calmodulin resin; 25 mM Tris pH 8.0, 100 mM NaCl, DNase I); co-purified proteins by immunoblotting
[2] = target: TAP-tagged Spt16 (Spt16-TAP), wild type (budding yeast (S. cerevisiae)) (UniProt P32558); assay: as above
[3] = target: TAP-tagged Spt16-ΔN (Spt16-ΔN-TAP) (budding yeast (S. cerevisiae)) (UniProt P32558); assay: affinity purification of the complex, Coomassie-stained gel; Spt16-TAP or Spt16-ΔN-TAP bound to IgG beads from yeast lysate, washed with IP buffer with 500 mM NaCl, eluted with TEV; SDS-PAGE and CBB staining
[4] = target: TAP-tagged Spt16 (Spt16-TAP), wild type (budding yeast (S. cerevisiae)) (UniProt P32558); assay: as above
[5] = target: Mcm2-Vc155 (budding yeast (S. cerevisiae)) (UniProt P29469); assay: split reporter; split YFP (Vc155 and Vn173) in live yeast cells, wild-type and spt16-ΔN; S-phase cells counted; confocal microscopy
[6] = target: Flag-tagged Mcm2 (Mcm2-Flag) (budding yeast (S. cerevisiae)) (UniProt P29469); assay: co-IP; Mcm2-Flag purified on ANTI-FLAG M2 gel from lysates of wild-type and spt16-ΔN yeast cells (Flag-IP buffer, 100 mM KAc; pellet Flag-IP with 600 mM KAc); immunoblotting
[7] = target: TAP-tagged Spt16 N-terminal domain (Spt16-N-TAP) (budding yeast (S. cerevisiae)) (UniProt P32558); assay: co-IP; tandem affinity purification of TAP-tagged Spt16 from yeast lysate (IgG Sepharose, TEV elution, calmodulin resin; 25 mM Tris pH 8.0, 100 mM NaCl, DNase I); co-purified proteins by immunoblotting

| Substance | binding [2] | binding [6] | other results |
| --- | --- | --- | --- |
| Flag-tagged Mcm2 (Mcm2-Flag) (from UniProt P29469 1-868) | binds |  | binding [1]: binds |
| Pob3 (from UniProt Q04636 1-552) |  |  | binding [3]: binds; binding [4]: binds |
| histone H3-Vn173 (from UniProt P61830 1-136) |  |  | binding [5]: binds |
| Spt16 (in wild-type cells expressing Mcm2-Flag) (from UniProt P32558 1-1035) |  | binds |  |
| histone H3 (co-purified with Mcm2-Flag) (from UniProt P61830 1-136) |  | binds |  |
| histone H3 acetylated at lysine 56 (H3K56ac) (from UniProt P61830 1-136) |  | binds weakly |  |
| histone H3 tri-methylated at lysine 4 (H3K4me3) (from UniProt P61830 1-136) |  | binds |  |
| Mcm2 (from UniProt P29469 1-868) | binds |  | binding [7]: binds |
| Mcm2–3A mutant protein (Y79A, Y82A, Y91A) (from UniProt P29469 1-868) | binds |  |  |
